Source: paper doi:10.1101/2023.05.25.542057 (bioRxiv, 2023)
Substitutions are numbered along the chain they refer to. In names and notes the source's numbering stands. No constants are given. Whether binding was seen depends on the method and setting. Binding seen in cells or lysates may run through a third protein. Some entries that bind do so weakly or less than the wild type. Where a sequence is shown, tags or fusion partners need not be part of it. Blank lines part the entries; values can stand above or below the binder they belong to.

Columns and labels:
Assay in all cases: co-IP
[1] = molecular target: T1, Codanin1 full-length S1036F-R1042W-D1043V (FWV), tagged, expressed in HEK293T (human) (UniProt Q8IWY9)
T1 sequence: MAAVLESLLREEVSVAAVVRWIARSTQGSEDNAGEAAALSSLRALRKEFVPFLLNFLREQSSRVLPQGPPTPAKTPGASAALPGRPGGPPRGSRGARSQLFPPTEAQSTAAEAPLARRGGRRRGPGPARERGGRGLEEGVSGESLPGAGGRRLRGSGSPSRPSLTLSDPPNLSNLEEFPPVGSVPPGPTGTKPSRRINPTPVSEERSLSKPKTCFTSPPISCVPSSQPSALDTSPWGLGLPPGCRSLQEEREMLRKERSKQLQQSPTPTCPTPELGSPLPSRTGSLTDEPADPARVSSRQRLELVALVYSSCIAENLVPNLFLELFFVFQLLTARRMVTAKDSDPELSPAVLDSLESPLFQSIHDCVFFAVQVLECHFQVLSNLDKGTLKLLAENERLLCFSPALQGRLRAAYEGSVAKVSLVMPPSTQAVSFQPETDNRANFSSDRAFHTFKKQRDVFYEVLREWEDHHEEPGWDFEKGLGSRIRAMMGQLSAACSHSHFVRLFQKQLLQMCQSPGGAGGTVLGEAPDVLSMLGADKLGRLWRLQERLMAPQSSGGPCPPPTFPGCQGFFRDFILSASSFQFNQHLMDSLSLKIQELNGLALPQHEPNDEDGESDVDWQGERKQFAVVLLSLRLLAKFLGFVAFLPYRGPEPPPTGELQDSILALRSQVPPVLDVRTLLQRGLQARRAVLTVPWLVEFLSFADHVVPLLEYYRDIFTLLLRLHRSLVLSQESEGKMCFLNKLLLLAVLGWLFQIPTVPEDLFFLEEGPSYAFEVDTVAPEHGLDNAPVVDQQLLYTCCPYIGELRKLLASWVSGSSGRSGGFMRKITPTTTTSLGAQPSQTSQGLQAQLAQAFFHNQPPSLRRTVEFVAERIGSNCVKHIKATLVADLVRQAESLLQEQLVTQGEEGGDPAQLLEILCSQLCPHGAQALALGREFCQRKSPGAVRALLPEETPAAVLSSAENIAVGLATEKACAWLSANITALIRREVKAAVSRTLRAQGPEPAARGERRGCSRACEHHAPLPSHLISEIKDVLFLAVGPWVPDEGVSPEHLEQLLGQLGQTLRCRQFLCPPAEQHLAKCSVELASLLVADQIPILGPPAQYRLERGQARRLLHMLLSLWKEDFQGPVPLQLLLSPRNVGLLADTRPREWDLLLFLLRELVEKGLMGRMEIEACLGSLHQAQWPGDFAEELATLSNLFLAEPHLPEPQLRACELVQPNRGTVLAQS

[2] = molecular target: T2, Codanin1 full-length wild type, Flag- or Myc-tagged, expressed in HEK293T (human) (UniProt Q8IWY9)
T2 sequence: T1 sequence with F1036S, W1042R, V1043D

[3] = molecular target: T3, Codanin1_(Cterm) S1036F-R1042W-D1043V (FWV), tagged, expressed in HEK293T (human) (UniProt Q8IWY9)
T3 sequence: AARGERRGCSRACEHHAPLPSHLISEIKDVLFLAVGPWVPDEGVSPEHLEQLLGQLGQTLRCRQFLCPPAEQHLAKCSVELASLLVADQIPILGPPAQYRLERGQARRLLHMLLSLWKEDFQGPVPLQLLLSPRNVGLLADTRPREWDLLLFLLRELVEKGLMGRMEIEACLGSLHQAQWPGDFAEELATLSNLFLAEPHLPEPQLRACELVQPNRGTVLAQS

[4] = molecular target: T4, Codanin1_(Cterm) wild type, Flag- or Myc-tagged, expressed in HEK293T (human) (UniProt Q8IWY9)
T4 sequence: T3 sequence with F32S, W38R, V39D

[5] = molecular target: T5, Codanin1 full-length wild type, Flag- or Myc-tagged, expressed in HEK293T (human), Q8IWY9; settings: remark: other sources report otherwise
T5 chain: T1 sequence with F1036S, W1042R, V1043D

B1: CDAN1-interacting nuclease 1 (CDIN1), full-length, recombinant from bacteria (natural protein)
chain: MILTKAQYDEIAQCLVSVPPTRQSLRKLKQRFPSQSQATLLSIFSQEYQKHIKRTHAKHHTSEAIESYYQRYLNGVVKNGAAPVLLDLANEVDYAPSLMARLILERFLQEHEETPPSKSIINSMLRDPSQIPDGVLANQVYQCIVNDCCYGPLVDCIKHAIGHEHEVLLRDLLLEKNLSFLDEDQLRAKGYDKTPDFILQVPVAVEGHIIHWIESKASFGDECSHHAYLHDQFWSYWNRFGPGLVIYWYGFIQELDCNRERGILLKACFPTNIVTLCHSIA
binding [1]: no binding | binding [2]: binds | binding [3]: no binding | binding [4]: binds

B2: CDIN1 C156Y, tagged, expressed in HEK293T (protein, UniProt Q9Y2V0 1-281)
chain: B1 chain with C156Y
binding [2]: binds | binding [4]: binds

B5: CDIN1 L178Q, tagged, expressed in HEK293T, Q9Y2V0 1-281 (protein)
chain: B1 chain with L178Q
binding [5]: no binding

B6: CDIN1 Y94C, tagged, expressed in HEK293T, Q9Y2V0 1-281 (protein)
chain: B1 chain with Y94C
binding [5]: no binding

B7: CDIN1 Y94C, tagged, expressed in HEK293T (protein, UniProt Q9Y2V0 1-281)
chain: B1 chain with Y94C
binding [4]: no binding

B9: CDIN1 L178Q, tagged, expressed in HEK293T (protein, UniProt Q9Y2V0 1-281)
chain: B1 chain with L178Q
binding [4]: no binding

Now from value to binder:

binding [2]: no binding | binding [4]: no binding
B3: CDIN1 Y94S, tagged, expressed in HEK293T (protein, UniProt Q9Y2V0 1-281)
chain: B1 chain with Y94S

binding [2]: no binding
B4: CDIN1 Y94S-C156Y-L178Q (SYQ), tagged, expressed in HEK293T (protein, UniProt Q9Y2V0 1-281)
chain: B1 chain with Y94S, C156Y, L178Q

binding [2]: no binding
B8: CDIN1 Y94C-C156Y-L178Q (CYQ), tagged, expressed in HEK293T (protein, UniProt Q9Y2V0 1-281)
chain: B1 chain with Y94C, C156Y, L178Q
